# Several values for one entry are separate records, joined by “and”; a condition that tells them apart may be missing. Equal entries are not always repeated. Among all 300,000 compounds or so, about 3,700 (1.2%) were called active. Inconclusive means that the source gave no clear call. Such entries were picked first, then a sample of the others. Calls follow the shape of the full dose curve; tested in HEK293 cells. Where the call is inconclusive, the potency comes from a doubtful curve fit.
# Test: qHTS for Inhibitors of binding or entry into cells for Lassa Virus; also: nearly all actives have a fitted effect of over 50% in size
# Conditions: Lassa virus pseudotype entry inhibition, cell reporter; series mostly up to 37.9 µM
# Potency is read from the fitted curve at half-maximal effect.
row,Compound,Potency
1,O=C(N/N=C/C=C/c1ccccc1)C1CC1c1ccccc1 (stereo not given),active: 0.13 µM
2,COc1ccc(NC(=O)CN(C)C(=O)/C=C/c2ccc(OCc3ccccc3)cc2)cc1,"inconclusive: 12.6 µM [inhibitor, partial curve, poor fit]"
3,C=C1C(=O)OC2C=C(CO)CCC=C(CO)CC(OC(=O)C(C)C)C12 (stereo not given),"inconclusive: 10 µM [inhibitor, partial curve, poor fit]"
4,Cc1ccc2c(CSc3nc4ccccc4c(=O)n3CCCO)cc(=O)oc2c1C,"inconclusive: 10 µM [inhibitor, partial curve, poor fit]"
5,CCC(=O)Nc1ccccc1-c1nc2ccccc2[nH]c1=O,inactive
6,Cc1cccc(-n2cnc(C(=O)N3CCN(C)CC3)c2)n1,"inconclusive: 12.6 µM [activator, single point]"
7,O=C(CCN1C(=O)/C(=C/c2ccc(Cl)cc2)SC1=S)Nc1cccc(C(=O)O)c1,"inconclusive: 3.16 µM [inhibitor, single point]"
8,O=C(/C=C/c1cccs1)Nc1scc(-c2ccccc2)c1C(=O)O,"inconclusive: 15.8 µM [inhibitor, single point]"
9,COc1ccc(CCNC(=O)COc2ccc(N(C)S(=O)(=O)c3ccc(Cl)cc3)cc2)cc1,"inconclusive: 11.2 µM [inhibitor, partial curve, poor fit]"
10,CCC(=O)c1ccc(OCC(=O)Nc2cc(S(=O)(=O)N3CCCCC3)ccc2N2CCN(CC)CC2)cc1,"inconclusive: 12.6 µM [inhibitor, single point]"
11,Cc1cc(SCC(=O)OC/C(O)=C(\C#N)c2nc3ccccc3[nH]2)c(C)cc1Br,"inconclusive: 14.1 µM [inhibitor, single point]"
12,Cc1ccccc1C(OCCN(C)C)c1ccccc1 (stereo not given),"inconclusive: 29.1 µM [inhibitor, single point]"
13,Clc1ccc(Cn2ncc3c(NCc4ccccc4)ncnc32)cc1,"inconclusive: 5.01 µM [inhibitor, partial curve, poor fit]"
14,COc1ccc(N(Cc2ccccc2)S(=O)(=O)c2cccc(C(=O)Nc3ccccn3)c2)cc1,active: 12.6 µM
15,C=C(C#CCCO)CCN1C=C(C(=O)OCC)C(c2ccccc2)NC1=O (stereo not given),"inconclusive: 5.96 µM [activator, single point]"
16,CCN1CCC(CC(=O)Nc2n[nH]c3nnc(-c4cccc(F)c4F)cc23)CC1,"inconclusive: 0.0281 µM [inhibitor, full curve, poor fit]"
17,CCN(c1ccccc1)S(=O)(=O)c1cc(C(=O)Nc2cccc(Cl)c2)ccc1F,active: 12.6 µM
18,O=C(NC(=S)Nc1ccc(S(=O)(=O)N2CCCC2)cc1)c1cccs1,inactive
19,O=C(C=Cc1ccco1)c1cc(Cl)ccc1O,"inconclusive: 31.6 µM [inhibitor, single point]"
20,O=C(Nc1ccc(F)cc1)Nc1cccnc1,"inconclusive: 35.5 µM [activator, single point]"
21,O=C(CSc1ccc(Cl)cc1)Nc1cccc(-c2nc3ncccc3o2)c1,"inconclusive: 29.1 µM [inhibitor, single point]"
22,O=C(CC1CCS(=O)(=O)C1)Nc1ccc[nH]c1=O (stereo not given),"inconclusive: 0.184 µM [inhibitor, single point]"

row,Compound,Potency
1,C/C(=N/NC(=O)c1ccccn1)c1ccncc1,inactive
2,Cc1cc(C)cc(NC(=O)c2ccc(CSc3nnnn3C)cc2)c1,"inconclusive: 35.5 µM [inhibitor, single point]"
3,CCCC(=O)NCC(c1cccs1)S(=O)(=O)c1ccc(Cl)cc1 (stereo not given),"inconclusive: 0.708 µM [inhibitor, full curve, poor fit]"
4,Nc1nc(SCc2ccc(F)cc2)ns1,"inconclusive: 2.24 µM [activator, full curve, poor fit]"
5,COc1ccc(OC)c(NS(=O)(=O)c2ccc(SC)cc2)c1,"inconclusive: 8.91 µM [inhibitor, partial curve, poor fit]"
6,COc1cccc(/C=C/c2nc(C#N)c(N3CCCCCC3)o2)c1,"inconclusive: 12.6 µM [inhibitor, single point]"
7,CCOc1ccc(CCNC(=O)CSc2cc(=O)n(CC)c3ccccc23)cc1OCC,"inconclusive: 17.8 µM [inhibitor, single point]"
8,CCC(C)NC(=O)c1c(N)n(/N=C/c2cccnc2)c2nc3ccccc3nc12 (stereo not given),inactive
9,CCOC(=O)C1(O)CC(C)=NN1C(=O)c1cccc(Br)c1 (stereo not given),"inconclusive: 14.1 µM [inhibitor, partial curve, poor fit]"
10,COc1cccc(-c2cc(C(F)(F)F)nc(N3CCOCC3)n2)c1,"inconclusive: 7.3 µM [activator, partial curve, poor fit]"
11,CCOC(=O)CC(=O)CSc1nc(-c2ccccc2)cc(-c2ccc(Cl)cc2)c1C#N,"inconclusive: 0.116 µM [inhibitor, single point]"
12,N#Cc1cc2ccccc2nc1N,"inconclusive: 0.562 µM [activator, full curve, poor fit]"
13,O=C(Nc1ccc2c(c1)CCC2)c1ccccc1F,"inconclusive: 20 µM [inhibitor, partial curve, poor fit]"
14,CCC1Oc2ccc(C)cc2N(CC(=O)NCCc2ccccc2)C1=O (stereo not given),"inconclusive: 11.2 µM [activator, single point]"
15,COc1ccc(OC)c(-c2csc(NC(=O)CSc3ccccc3)n2)c1,active: 16.4 µM
16,CN(CC(=O)Nc1ccccc1Cl)C(=O)c1cc2c(s1)CCCCC2,"inconclusive: 20 µM [inhibitor, single point]"
17,Cc1cc(=O)n(-c2ccc3ccccc3n2)[nH]1,"inconclusive: 20.6 µM [inhibitor, partial curve, poor fit]"
18,CN1C(=O)N(C)C(=O)C2(Cc3c(ccc4ccccc34)N(C)C2)C1=O,inactive
19,CCC1(C)Cc2c(sc3nnn(CC(=O)Nc4ccc(C)cc4)c(=O)c23)CO1 (stereo not given),"inconclusive: 4.11 µM [inhibitor, partial curve]"
20,O=C(Cc1ccccc1)Nc1cccc(N2CCCC2)c1,inactive
21,COC(=O)c1ccccc1NC(=O)CSc1ccccn1,"inconclusive: 35.5 µM [activator, partial curve, poor fit]"
22,Cc1nnc(-c2cnn(C)c2N)n1CCCN(C)C,"inconclusive: 3.16 µM [inhibitor, single point]"

row,Compound,Potency
1,CCN(CC)c1ccc(NC2=C(Cl)C(=O)c3ccccc3C2=O)cc1,active: 5.62 µM
2,C/C(=N\NC(=S)Nc1cccc(C)c1)c1ccco1,"inconclusive: 7.08 µM [inhibitor, partial curve, poor fit]"
3,CCOc1ccc(CCNC(=O)CCn2c(=O)c3cccn3c3ccc(F)cc32)cc1,"inconclusive: 1.78 µM [activator, partial curve, poor fit]"
4,C=CCn1c(-c2ccc(S(=O)(=O)N3CCOCC3)cc2)csc1=Nc1ccccc1,"inconclusive: 35.5 µM [inhibitor, single point]"
5,CCc1ccc(Nc2ncc3c(n2)CC(C)CC3=O)cc1 (stereo not given),"inconclusive: 0.562 µM [activator, full curve, poor fit]"
6,CCOC(=O)C1CCN(C(=O)/C=C/c2ccc(OC)cc2)CC1,"inconclusive: 11.2 µM [activator, single point]"
7,CC(C)COc1ccc(C(=O)Nc2onc3c2CCCC3)cc1,"inconclusive: 6.31 µM [activator, partial curve, poor fit]"
8,CCOc1ccc(S(=O)(=O)NCc2ccccn2)cc1NC(=O)c1ccccc1F,"inconclusive: 0.891 µM [inhibitor, full curve, poor fit]"
9,CCc1ccccc1NS(=O)(=O)c1ccc2[nH]cc(C(=O)NC3CCCC3)c(=O)c2c1,"inactive and inconclusive: 10 µM [inhibitor, partial curve]"
10,CC12CCC(=O)N1C(C(=O)Nc1nnc(SCc3ccccc3F)s1)CS2 (stereo not given),"inconclusive: 3.98 µM [activator, partial curve, poor fit]"
11,CCOC(=O)N1CCN(c2c(N3CCN(c4ccccc4F)CC3)c(=O)c2=O)CC1,"inconclusive: 35.5 µM [inhibitor, partial curve, poor fit]"
12,Cc1ccc(NC(=O)CCCc2ccccc2)nc1,"inconclusive: 15.8 µM [inhibitor, single point]"
13,COc1cccc(C(C(=O)NC2CCCCC2)N(C(=O)Cc2cccs2)c2ccc(-n3cnnn3)c(OC)c2)c1 (stereo not given),"inconclusive: 18.3 µM [inhibitor, partial curve, poor fit]"
14,Cc1ccccc1-c1noc(CSc2nc(-c3ccc(F)cc3)cc(=O)[nH]2)n1,inactive
15,Cc1sc2ncn3ncnc3c2c1C,inactive
16,COc1cc(CN(C(=O)c2ccc(C)cc2)c2ccccn2)cc(OC)c1OC,inactive
17,CCOc1ccccc1/C=C/c1onc(C)c1S(=O)(=O)N1CCC(C(=O)N2CCCCC2)CC1,"inconclusive: 6.31 µM [inhibitor, single point]"
18,COC(=O)c1sc(NC(=O)c2ccncc2)nc1C,"inconclusive: 17.8 µM [activator, single point]"
19,CCCCOc1ccc(-c2nc(=S)[nH][nH]2)cc1,"inconclusive: 0.517 µM [inhibitor, partial curve, poor fit]"
20,O=c1c2ccccc2nc(/C=C\c2ccc(F)cc2)n1-c1ccccc1F,"inconclusive: 3.16 µM [activator, single point]"
21,Cc1nc2ccccc2nc1SCC(=O)c1ccccc1,inactive

# 2 entries from above, bar-delimited:
row | Compound | Potency
8 | CCOc1ccc(S(=O)(=O)NCc2ccccn2)cc1NC(=O)c1ccccc1F | inconclusive: 0.891 µM [inhibitor, full curve, poor fit]
9 | CCc1ccccc1NS(=O)(=O)c1ccc2[nH]cc(C(=O)NC3CCCC3)c(=O)c2c1 | inactive and inconclusive: 10 µM [inhibitor, partial curve]

# Reference: PubChem BioAssay AID540256 (National Center for Advancing Translational Sciences (NCATS), 2011)
